Results taken from article PMC12462991.
No constants are given. Whether binding was seen depends on the method and setting. Binding seen in cells or lysates may run through a third protein. Some binding calls cover weakened binding; strength is not graded here.

Sequences of proteins named here, by UniProt entry; tags and fusion partners are left off.
UniProt Q99PV5: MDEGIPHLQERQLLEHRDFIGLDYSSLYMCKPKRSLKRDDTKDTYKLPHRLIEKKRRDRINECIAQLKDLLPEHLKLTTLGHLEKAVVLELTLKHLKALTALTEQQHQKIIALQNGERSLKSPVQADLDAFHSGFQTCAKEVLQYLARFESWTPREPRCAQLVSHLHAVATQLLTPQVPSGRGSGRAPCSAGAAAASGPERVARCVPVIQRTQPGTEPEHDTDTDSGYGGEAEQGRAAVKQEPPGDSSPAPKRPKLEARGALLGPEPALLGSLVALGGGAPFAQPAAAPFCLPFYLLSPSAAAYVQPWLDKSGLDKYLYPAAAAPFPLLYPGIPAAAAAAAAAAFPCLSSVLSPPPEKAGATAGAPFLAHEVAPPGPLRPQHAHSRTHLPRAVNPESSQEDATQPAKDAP
UniProt P10085: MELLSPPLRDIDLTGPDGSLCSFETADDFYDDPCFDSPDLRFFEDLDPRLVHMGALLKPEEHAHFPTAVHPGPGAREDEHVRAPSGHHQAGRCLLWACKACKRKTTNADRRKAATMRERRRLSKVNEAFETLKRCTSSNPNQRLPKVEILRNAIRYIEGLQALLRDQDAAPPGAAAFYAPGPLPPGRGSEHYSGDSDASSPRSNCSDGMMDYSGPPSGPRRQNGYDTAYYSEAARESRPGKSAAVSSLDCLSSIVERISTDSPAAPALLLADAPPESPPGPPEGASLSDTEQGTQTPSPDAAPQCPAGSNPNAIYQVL

Tests used:
[1] = target: HA‐tagged DEC2 (basic helix‐loop‐helix family member e41) (UniProt Q99PV5); experiment: co-IP; HEK293T cells co-transfected with Dec2‐HA and Myod1‐3xFLAG, lysed in RIPA 48 h later; lysate incubated with anti‐FLAG or anti‐HA antibody 12 h at 4 °C, Protein G Dynabeads, three RIPA washes, western blot with the reciprocal antibody; also with 20 µM CBD for 12 h before extraction (interaction not altered)
[2] = target: FLAG‐tagged MYOD1 (myoblast determination protein 1) (UniProt P10085); experiment: as above

Row | binding [1] | binding [2] | Substance
1 | binds | – | FLAG‐tagged MYOD1 (myoblast determination protein 1) (from UniProt P10085 1-318)
2 | – | binds | HA‐tagged DEC2 (basic helix‐loop‐helix family member e41) (from UniProt Q99PV5 1-410)
